Test results: patent US20080161232A1 (JERINI AG, priority 2005, published 2008)
Non-standard residues stand in square brackets, D forms with d. Bta = N[C@@H](Cc1csc2ccccc12)C(=O)O; dCha = N[C@H](CC1CCCCC1)C(=O)O; Orn = NCCC[C@H](N)C(=O)O; Aze = O=C(O)[C@@H]1CCN1

Experiment: general procedure: Fmoc solid-phase peptide synthesis; tritylchloride resin or Wang resin (C-terminal acids); Fmoc-Rink amide resin (C-terminal amides); HBTU/DIPEA
Conditions: whole synthesis, scale 200 mg resin

**Q.** Which isolated mass does the source give for “Ac-F[Orn][Aze][dCha][Bta]F-NHMe (SMILES CNC(=O)[C@H](Cc1ccccc1)NC(=O)[C@H](Cc1csc2ccccc12)NC(=O)[C@@H](CC1CCCCC1)NC(=O)[C@@H]1CCN1C(=O)[C@H](CCCN)NC(=O)[C@H](Cc1ccccc1)NC(C)=O)” here?
**A.** 10.0 mg
